Tested on: CA19-9 modified proteins
Assay: CA19-9 IP/MS (iTRAQ) of organoid conditioned media after Dox treatment
Parameters: species or system mouse
Conditions: for 17 0H 5B1 (CA19-9 IP/MS relative abundance) / 17 0H NS19 (CA19-9 IP/MS relative abundance) / 17 8H 5B1 (CA19-9 IP/MS relative abundance) / 17 8H NS19 (CA19-9 IP/MS relative abundance): A217 organoid conditioned media; for 17 0H NS19 (CA19-9 IP/MS relative abundance) / 17 8H NS19 (CA19-9 IP/MS relative abundance) / 20 0H NS19 (CA19-9 IP/MS relative abundance) / 20 8H NS19 (CA19-9 IP/MS relative abundance): NS19-9; for 17 0H NS19 (CA19-9 IP/MS relative abundance): every printed value in this column is 1; for 20 0H 5B1 (CA19-9 IP/MS relative abundance) / 20 0H NS19 (CA19-9 IP/MS relative abundance) / 20 8H 5B1 (CA19-9 IP/MS relative abundance) / 20 8H NS19 (CA19-9 IP/MS relative abundance): A220 organoid conditioned media
[1] = CA19-9 IP/MS relative abundance, A217 (genetic negative) organoid conditioned media, 0H (before treatment), IP with NS19-9, reference channel = 1
[2] = CA19-9 IP/MS relative abundance, A217 (genetic negative) organoid conditioned media, after 8 hours, IP with 5B1
[3] = CA19-9 IP/MS relative abundance, A217 (genetic negative) organoid conditioned media, after 8 hours, IP with NS19-9
[4] = CA19-9 IP/MS relative abundance, A220 (C;R^LSL;F) organoid conditioned media, 0H (before treatment), IP with 5B1
[5] = A217 (genetic negative) organoids conditioned media, after 8 hours of treatment, CA19-9 IP with 5B1, relative to 17 0H NS19
[6] = A217 (genetic negative) organoids conditioned media, after 8 hours of treatment, CA19-9 IP with NS19-9, relative to 17 0H NS19
[7] = A217 (genetic negative) organoids conditioned media, before treatment (0H), CA19-9 IP with NS19-9, relative abundance, reference channel
[8] = A220 (C;R^LSL;F) organoids conditioned media, before treatment (0H), CA19-9 IP with 5B1, relative to 17 0H NS19

With Q68FD5 the “17 0H NS19” value [1] was 1, the “17 8H 5B1” value [2] was 3.203 and the “17 8H NS19” value [3] was 0.654. For the same substance, the “20 0H 5B1” value [4] was 2.822.
With P20029 the “17 0H NS19” value [1] was 1, the “17 8H 5B1” value [2] was 6.854 and the “17 8H NS19” value [3] was 0.748. For the same substance, the “20 0H 5B1” value [4] was 5.533.
Q6P5H2 was tested, and the “17 0H 5B1 (CA19-9 IP/MS relative abundance)” value was 1.513, the “17 0H NS19 (CA19-9 IP/MS relative abundance)” value was 1 and the “17 8H 5B1 (CA19-9 IP/MS relative abundance)” value was 0.707. For the same substance, the “17 8H NS19 (CA19-9 IP/MS relative abundance)” value was 1.712, the “20 0H 5B1 (CA19-9 IP/MS relative abundance)” value was 1.036 and the “20 0H NS19 (CA19-9 IP/MS relative abundance)” value was 0.553. The “20 8H 5B1 (CA19-9 IP/MS relative abundance)” value was 2.072 and the “20 8H NS19 (CA19-9 IP/MS relative abundance)” value was 0.582.
P17879 was tested, and the “17 0H NS19” value [1] was 1, the “17 8H 5B1” value [2] was 3.557 and the “17 8H NS19” value [3] was 0.65. For the same substance, the “20 0H 5B1” value [4] was 3.1.
In the case of P50446, the “17 0H NS19” value [1] is reported as 1, the “17 8H 5B1” value [2] is reported as 0.796 and the “17 8H NS19” value [3] is reported as 1.21. The “20 0H 5B1” value [4] was 1.064.
With Q6PDM2 the “17 0H 5B1 (CA19-9 IP/MS relative abundance)” value was 0.997, the “17 0H NS19 (CA19-9 IP/MS relative abundance)” value was 1 and the “17 8H 5B1 (CA19-9 IP/MS relative abundance)” value was 0.883. For the same substance, the “17 8H NS19 (CA19-9 IP/MS relative abundance)” value was 0.234, the “20 0H 5B1 (CA19-9 IP/MS relative abundance)” value was 0.809 and the “20 0H NS19 (CA19-9 IP/MS relative abundance)” value was 0.214. For the same substance, the “20 8H 5B1 (CA19-9 IP/MS relative abundance)” value was 0.879 and the “20 8H NS19 (CA19-9 IP/MS relative abundance)” value was 0.269.
In the case of P99024, the “17 0H NS19” value [1] is reported as 1, the “17 8H 5B1” value [2] is reported as 4.365 and the “17 8H NS19” value [3] is reported as 0.649. For the same substance, the “20 0H 5B1” value [4] was 3.894.
For P20152, the “17 0H NS19” value [1] was 1, the “17 8H 5B1” value [2] was 10.327 and the “17 8H NS19” value [3] was 0.527. For the same substance, the “20 0H 5B1” value [4] was 10.501.
With Q8JZQ9 the “17 8H 5B1” value [5] was 1.39, the “17 8H NS19” value [6] was 0.455 and the “17 0H NS19” value [7] was 1. The “20 0H 5B1” value [8] was 1.286.
For O88844, the “17 8H 5B1” value [5] was 2.947, the “17 8H NS19” value [6] was 0.735 and the “17 0H NS19” value [7] was 1. For the same substance, the “20 0H 5B1” value [8] was 2.088.
In the case of P51150, the “17 0H 5B1 (CA19-9 IP/MS relative abundance)” value is reported as 1.645, the “17 0H NS19 (CA19-9 IP/MS relative abundance)” value is reported as 1 and the “17 8H 5B1 (CA19-9 IP/MS relative abundance)” value is reported as 1.178. The “17 8H NS19 (CA19-9 IP/MS relative abundance)” value was 0.671, the “20 0H 5B1 (CA19-9 IP/MS relative abundance)” value was 1.253 and the “20 0H NS19 (CA19-9 IP/MS relative abundance)” value was 0.493. The “20 8H 5B1 (CA19-9 IP/MS relative abundance)” value was 1.16 and the “20 8H NS19 (CA19-9 IP/MS relative abundance)” value was 0.53.
With Q8VEK3 the “17 0H 5B1 (CA19-9 IP/MS relative abundance)” value was 2.14, the “17 0H NS19 (CA19-9 IP/MS relative abundance)” value was 1 and the “17 8H 5B1 (CA19-9 IP/MS relative abundance)” value was 2.123. For the same substance, the “17 8H NS19 (CA19-9 IP/MS relative abundance)” value was 0.595, the “20 0H 5B1 (CA19-9 IP/MS relative abundance)” value was 1.932 and the “20 0H NS19 (CA19-9 IP/MS relative abundance)” value was 0.665. For the same substance, the “20 8H 5B1 (CA19-9 IP/MS relative abundance)” value was 1.931 and the “20 8H NS19 (CA19-9 IP/MS relative abundance)” value was 0.658.
With P16627 the “17 0H NS19” value [1] was 1, the “17 8H 5B1” value [2] was 3.954 and the “17 8H NS19” value [3] was 0.657. For the same substance, the “20 0H 5B1” value [4] was 3.284.
In the case of P16125, the “17 0H NS19” value [1] is reported as 1, the “17 8H 5B1” value [2] is reported as 3.424 and the “17 8H NS19” value [3] is reported as 0.614. For the same substance, the “20 0H 5B1” value [4] was 2.825.
For P62334, the “17 0H 5B1 (CA19-9 IP/MS relative abundance)” value was 1.651, the “17 0H NS19 (CA19-9 IP/MS relative abundance)” value was 1 and the “17 8H 5B1 (CA19-9 IP/MS relative abundance)” value was 1.432. For the same substance, the “17 8H NS19 (CA19-9 IP/MS relative abundance)” value was 0.561, the “20 0H 5B1 (CA19-9 IP/MS relative abundance)” value was 1.279 and the “20 0H NS19 (CA19-9 IP/MS relative abundance)” value was 0.524. The “20 8H 5B1 (CA19-9 IP/MS relative abundance)” value was 1.73 and the “20 8H NS19 (CA19-9 IP/MS relative abundance)” value was 0.454.
In the case of P56480, the “17 8H 5B1” value [5] is reported as 2.174, the “17 8H NS19” value [6] is reported as 0.622 and the “17 0H NS19” value [7] is reported as 1. For the same substance, the “20 0H 5B1” value [8] was 1.758.
P99027 was tested, and the “17 0H NS19” value [1] was 1, the “17 8H 5B1” value [2] was 4.951 and the “17 8H NS19” value [3] was 0.448. For the same substance, the “20 0H 5B1” value [4] was 4.357.
For P52480, the “17 0H NS19” value [1] was 1, the “17 8H 5B1” value [2] was 6.066 and the “17 8H NS19” value [3] was 0.517. The “20 0H 5B1” value [4] was 5.275.
P07724 was tested, and the “17 0H NS19” value [1] was 1, the “17 8H 5B1” value [2] was 0.388 and the “17 8H NS19” value [3] was 1.1. The “20 0H 5B1” value [4] was 0.288.
With P80317 the “17 0H NS19” value [1] was 1, the “17 8H 5B1” value [2] was 2.42 and the “17 8H NS19” value [3] was 0.66. For the same substance, the “20 0H 5B1” value [4] was 2.041.
In the case of P61407, the “17 0H 5B1 (CA19-9 IP/MS relative abundance)” value is reported as 0.571, the “17 0H NS19 (CA19-9 IP/MS relative abundance)” value is reported as 1 and the “17 8H 5B1 (CA19-9 IP/MS relative abundance)” value is reported as 0.525. The “17 8H NS19 (CA19-9 IP/MS relative abundance)” value was 0.823, the “20 0H 5B1 (CA19-9 IP/MS relative abundance)” value was 0.299 and the “20 0H NS19 (CA19-9 IP/MS relative abundance)” value was 0.185. The “20 8H NS19 (CA19-9 IP/MS relative abundance)” value was 0.224.
Q9CXY6 was tested, and the “17 8H 5B1” value [5] was 1.028, the “17 8H NS19” value [6] was 0.299 and the “17 0H NS19” value [7] was 1. For the same substance, the “20 0H 5B1” value [8] was 0.822.
With Q8VDD5 the “17 8H 5B1” value [5] was 1.89, the “17 8H NS19” value [6] was 0.936 and the “17 0H NS19” value [7] was 1. The “20 0H 5B1” value [8] was 1.638.
With Q3THK7 the “17 8H 5B1” value [5] was 2.592, the “17 8H NS19” value [6] was 0.747 and the “17 0H NS19” value [7] was 1. The “20 0H 5B1” value [8] was 2.124.

Source: patent US12378320B2, “Methods for treating pancreatitis” (Cold Spring Harbor Laboratory, priority 2018, dated 2025)
